These are yes or no findings as the source states them, for the method shown. Binding seen in cells or lysates may run through a third protein. Some entries that bind do so weakly or less than the wild type.

Sequences of proteins named here, by UniProt entry; tags and fusion partners are left off.
UniProt P51858: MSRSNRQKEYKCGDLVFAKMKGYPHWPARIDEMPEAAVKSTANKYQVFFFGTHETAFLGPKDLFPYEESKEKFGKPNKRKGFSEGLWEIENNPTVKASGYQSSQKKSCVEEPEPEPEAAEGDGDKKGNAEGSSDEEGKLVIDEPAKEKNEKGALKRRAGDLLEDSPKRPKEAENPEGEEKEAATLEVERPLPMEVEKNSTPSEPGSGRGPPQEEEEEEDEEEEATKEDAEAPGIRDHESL
UniProt P05412: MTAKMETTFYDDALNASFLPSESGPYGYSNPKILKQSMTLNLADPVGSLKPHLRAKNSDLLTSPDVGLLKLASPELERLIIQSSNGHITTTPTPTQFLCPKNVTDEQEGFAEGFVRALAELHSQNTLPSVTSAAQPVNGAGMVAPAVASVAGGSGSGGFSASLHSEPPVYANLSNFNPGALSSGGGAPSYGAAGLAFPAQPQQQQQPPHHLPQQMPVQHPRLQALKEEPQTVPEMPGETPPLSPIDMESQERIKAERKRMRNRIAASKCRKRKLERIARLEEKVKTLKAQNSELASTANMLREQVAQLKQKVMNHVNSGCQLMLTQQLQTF

In this test the target is hepatoma-derived growth factor (UniProt P51858). As to the kind of experiment: co-IP; Co-IP assay; cells, antibodies and conditions not told in this correction; three independent experiments.

Regarding c-Jun (from UniProt P05412 1-331), the binding entry is given as “binds”.

These data come from publication PMC8760688.
